Assay results as given in PubChem BioAssay AID226 (DTP/NCI, 2004).
The list is a part of this screen's results and no random one: it gathers tests that were run many times, whatever their T/C, doses with no T/C, and many T/C values between a quarter and a half above the control. Other doses and runs of a compound stand elsewhere. T/C is the treated group as % of the vehicle group. Some doses have a count of surviving animals in place of a T/C: the source files T/C as zero there, which appears to mark a toxic dose or a test without result, not a measured value. Some doses without a T/C left all or most animals alive at the check, yet need not have been tolerated: the source hardly ever lists a survival T/C far under the control, and the zero likely stands for such cases as well. Survivors were counted at the toxicity check, usually on the fifth day, unless a day is given; later deaths do not show. Schedule codes are those of the source, taken here to give the interval after Q, in days (D) or hours (H), and the number of doses after X. Some doses were run more than once; the results are listed from low to high. Some schedules carry Z or #; the key to these is not given. For survival time, this PubChem deposit counts one and a half times the control or more as active, and values a quarter to a half above the control carry no call in these data; other NCI protocols may use other cut-offs. Some T/C values are followed by the survivors on the day toxicity was checked, most often the fifth; without a count, all were alive then. Signs of the kind (2×) count equal records among those shown.

System: B6C3F1 mice, intracerebral ependymoblastoma, median survival T/C
Assay: NCI In Vivo Anticancer Drug Screen. Data for tumor model Ependymoblastoma (intracerebral) in B6C3F1 mice
Settings: T/C endpoint: median survival time, higher T/C = longer survival
Procedure: The antitumor activity of compounds was measured in mice bearing transplantable tumors. Survival or tumor size were measured and the results are expressed as the measurement made in the treated group (T) divided by the measurement made in the vehicle treated control group (C). The tumor model used in this assay is Ependymoblastoma (intracerebral) in B6C3F1 mice

[1] = dose: 4.0 mg/kg/injection, schedule: Q01DX005 (ip), vehicle: saline
[2] = dose: 8.0 mg/kg/injection, schedule: Q01DX001 (ip), vehicle: saline
[3] = dose: 16.0 mg/kg/injection, schedule: Q01DX005 (ip), vehicle: saline
[4] = dose: 32.0 mg/kg/injection, schedule: Q01DX001 (ip), vehicle: saline
[5] = dose: 64.0 mg/kg/injection, schedule: Q01DX001 (ip), vehicle: saline
[6] = dose: 400.0 mg/kg/injection, schedule: Q01DX005 (ip), vehicle: saline
[7] = dose: 100.0 mg/kg/injection, schedule: Q01DX005 (ip), vehicle: saline

In the case of OC(C1CO1)C(O)C1CO1 (stereo not drawn), the T/C (dose: 0.5 mg/kg/injection, schedule: Q01DX005 (ip), vehicle: saline) is reported as 95 [9 of 10 alive], 100, 109 (2×), 110, 113, 117 % of control, the T/C (dose: 1.0 mg/kg/injection, schedule: Q01DX005 (ip), vehicle: saline) is reported as 98 [9 of 10 alive], 108, 110, 111, 118, 119, 122 % of control and the T/C (dose: 2.0 mg/kg/injection, schedule: Q01DX001 (ip), vehicle: saline) is reported as 143 % of control. For the same compound, the T/C (dose: 2.0 mg/kg/injection, schedule: Q01DX005 (ip), vehicle: saline) was 113, 116, 118 [9 of 10 alive], 124, 130, 137, 158 % of control, the T/C (dose: 2.0 mg/kg/injection, schedule: Q01DX005 (oral), vehicle: water) was 135 % of control [9 of 10 alive] and the T/C (dose: 4.0 mg/kg/injection, schedule: Q01DX001 (ip), vehicle: saline) was 132 % of control. For the same compound, the T/C (dose: 4.0 mg/kg/injection, schedule: Q01DX001 (ip), vehicle: water) was 128 % of control, the T/C [1] was 141 [8 of 10 alive], 143, 147, 158, 161, 171 % of control and the survivor count [1] was 8 of 10. The survivor count (dose: 4.0 mg/kg/injection, schedule: Q01DX005 (oral), vehicle: water) was 10 of 10, the T/C (dose: 4.0 mg/kg/injection, schedule: Q#A X002 (ip), vehicle: water) was 131 % of control and the T/C [2] was 148 % of control. The T/C (dose: 8.0 mg/kg/injection, schedule: Q01DX001 (ip), vehicle: water) was 129 and 142 % of control, the survivor count (dose: 8.0 mg/kg/injection, schedule: Q01DX005 (ip), vehicle: saline) was 10 of 10 and the survivor count (dose: 8.0 mg/kg/injection, schedule: Q01DX005 (ip), vehicle: water) was 10 of 10. For the same compound, the survivor count (dose: 8.0 mg/kg/injection, schedule: Q01DX005 (oral), vehicle: water) was 9 of 10, the survivor count (dose: 16.0 mg/kg/injection, schedule: Q01DX001 (ip), vehicle: water) was 7 of 10 and 10 of 10 and the survivor count [3] was 3 of 10, 4 of 10, 6 of 10, 9 of 10, 10 of 10. The survivor count (dose: 16.0 mg/kg/injection, schedule: Q01DX005 (oral), vehicle: water) was 2 of 10, the survivor count (dose: 16.0 mg/kg/injection, schedule: Q#A X002 (ip), vehicle: water) was 1 of 10 and the survivor count [4] was 0 of 5 and 5 of 5. For the same compound, the survivor count (dose: 32.0 mg/kg/injection, schedule: Q01DX001 (ip), vehicle: water) was 6 of 10 and 10 of 10, the survivor count (dose: 32.0 mg/kg/injection, schedule: Q01DX005 (oral), vehicle: water) was 4 of 10 and the survivor count [5] was 0 of 5.

For COC(=O)c1cccc(N=NN(C)C)c1, the T/C (dose: 25.0 mg/kg/injection, schedule: Q01DX005 (ip), vehicle: saline with Tween-80) was 135 % of control, the T/C (dose: 50.0 mg/kg/injection, schedule: Q01DX005 (ip), vehicle: saline with Tween-80) was 125 % of control and the T/C (dose: 64.0 mg/kg/injection, schedule: Q01DX005 (ip), vehicle: saline + alcohol) was 143 % of control. For the same compound, the T/C (dose: 200.0 mg/kg/injection, schedule: Q01DX005 (ip), vehicle: saline with Tween-80) was 130 % of control.

For O=NN(CCF)C(=O)NC1CCC(=O)NC1=O (stereo not drawn), the survivor count (dose: 40.0 mg/kg/injection, schedule: Q01DX005 (ip), vehicle: Klucel (hydroxypropylcellulose) (HPC)) was 5 of 10 on day 6.

In the case of CCN(CC)c1ccc2cc3ccc(=[N+](CC)CC)cc-3oc2c1, the T/C [2] is reported as 95 [survivors not given], 101 [survivors not given], 102 [survivors not given], 111 % of control, the T/C (dose: 16.0 mg/kg/injection, schedule: Q01DX001 (ip), vehicle: saline) is reported as 97, 97 [survivors not given], 104 [survivors not given], 114 % of control [survivors not given] and the survivor count [3] is reported as 0 of 10. The T/C [4] was 95 [8 of 10 alive], 95 [survivors not given], 97 [survivors not given], 106 % of control [survivors not given] and the T/C [5] was 93 % of control [5 of 10 alive].

Nc1ccn(C2OC(COC(=O)C34CC5CC(CC(C5)C3)C4)C(O)C2O)c(=O)n1 (stereo not drawn) was tested, and the T/C (dose: 50.0 mg/kg/injection, schedule: Q01DX005 (ip), vehicle: Klucel (hydroxypropylcellulose) (HPC)) was 135 % of control and the survivor count (dose: 100.0 mg/kg/injection, schedule: Q01DX005 (ip), vehicle: Klucel (hydroxypropylcellulose) (HPC)) was 9 of 10 and 10 of 10.

With O=C(O)C(O)C(O)C(=O)O.[NH-]C1CCCCC1[NH-].[Pt+2] (stereo not drawn) the survivor count (dose: 8.0 mg/kg/injection, schedule: Q01DX005 (ip), vehicle: dextrose) was 10 of 10, the survivor count (dose: 16.0 mg/kg/injection, schedule: Q01DX005 (ip), vehicle: dextrose) was 10 of 10 and the survivor count (dose: 32.0 mg/kg/injection, schedule: Q01DX005 (ip), vehicle: dextrose) was 8 of 10.

CC(=O)Nc1ccc(/C=N/NC(N)=S)cc1 was tested, and the survivor count (dose: 1600.0 mg/kg/injection, schedule: Q01DX005 (ip), vehicle: Klucel (hydroxypropylcellulose) (HPC)) was 9 of 10.

CCCCCN(C)/N=N/c1nc[nH]c1C(N)=O was tested, and the T/C (dose: 16.0 mg/kg/injection, schedule: Q01DX005 (ip), vehicle: saline with Tween-80) was 146 % of control, the T/C (dose: 32.0 mg/kg/injection, schedule: Q01DX005 (ip), vehicle: saline with Tween-80) was 144 % of control and the survivor count (dose: 256.0 mg/kg/injection, schedule: Q01DX005 (ip), vehicle: saline with Tween-80) was 10 of 10.

With CN(C)c1nc(N(C)C)nc(N(C)C)n1 the survivor count [6] was 9 of 10, the survivor count (dose: 800.0 mg/kg/injection, schedule: Q01DX005 (ip), vehicle: saline with Tween-80) was 0 of 10 and the survivor count (dose: 1600.0 mg/kg/injection, schedule: Q01DX001 (ip), vehicle: saline with Tween-80) was 5 of 10.

In the case of NC(=O)N(CCCl)N=O, the T/C (dose: 2.0 mg/kg/injection, schedule: Q01DX001 (ip), vehicle: saline + alcohol) is reported as 143 % of control, the survivor count (dose: 8.0 mg/kg/injection, schedule: Q01DX001 (ip), vehicle: saline + alcohol) is reported as 7 of 10 and the survivor count (dose: 16.0 mg/kg/injection, schedule: Q01DX001 (ip), vehicle: saline + alcohol) is reported as 5 of 10.

In the case of COC1OC(CNC(=O)N(C)N=O)C(O)C(O)C1O (stereo not drawn), the T/C (dose: 25.0 mg/kg/injection, schedule: Q01DX005 (ip), vehicle: saline) is reported as 127 % of control, the T/C (dose: 50.0 mg/kg/injection, schedule: Q01DX005 (ip), vehicle: saline) is reported as 145 % of control and the T/C [7] is reported as 141 and 145 % of control. For the same compound, the T/C (dose: 200.0 mg/kg/injection, schedule: Q01DX005 (ip), vehicle: saline) was 138 and 140 % of control, the T/C [6] was 132 % of control and the survivor count (dose: 800.0 mg/kg/injection, schedule: Q01DX005 (ip), vehicle: saline) was 10 of 10.

COc1ccc2c(c1OC(C)=O)-c1cc(OC(C)=O)cc3c1C(C2)N(C(=O)CBr)CC3 (stereo not drawn) was tested, and the survivor count [7] was 6 of 10.

With COc1cccc2c1C(=O)c1c(O)c3c(c(O)c1C2=O)C[C@@](O)(/C(C)=N/NC(=O)c1ccccc1)C[C@@H]3OC1CC(N)C(O)C(C)O1 (stereo partly drawn) the survivor count [3] was 10 of 10 and the survivor count (dose: 32.0 mg/kg/injection, schedule: Q01DX005 (ip), vehicle: saline) was 9 of 10.
